Measured values taken from patent US8357654B2, “Multimeric CD40 ligands, method for preparing same and use thereof for preparing drugs” (Centre National de la Recherche Scientifique, priority 2004, dated 2013).
For at least one compound, name, drawing or mass did not settle the structure. Non-standard residues stand in square brackets, D forms with d. Residues, ends and D or L forms follow the SMILES beside them. Groups on a side chain read outwards from the residue. *: point of attachment. Biotin = O=C1N[C@H]2[C@H](CS[C@H]2CCCCC(=O)*)N1; Ahx = NCCCCCC(=O)O

Sequences of proteins named here, by UniProt entry; tags and fusion partners are left off. Residues count along the entry.
UniProt P25942, 21-193 limits assumed: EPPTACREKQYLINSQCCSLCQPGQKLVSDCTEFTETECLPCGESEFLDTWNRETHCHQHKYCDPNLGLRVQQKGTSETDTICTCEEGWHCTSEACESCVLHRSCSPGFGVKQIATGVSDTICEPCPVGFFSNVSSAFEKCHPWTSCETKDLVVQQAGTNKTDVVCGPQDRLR
UniProt P25942, 21-277: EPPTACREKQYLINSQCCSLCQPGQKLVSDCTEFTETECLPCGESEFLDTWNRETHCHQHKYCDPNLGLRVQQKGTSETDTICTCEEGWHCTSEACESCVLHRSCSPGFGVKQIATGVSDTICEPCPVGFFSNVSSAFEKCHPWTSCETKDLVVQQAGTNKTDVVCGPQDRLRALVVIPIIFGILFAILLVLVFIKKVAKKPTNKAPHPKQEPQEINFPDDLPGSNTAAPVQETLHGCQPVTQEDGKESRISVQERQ

Legend:
[1] = target: T1, recombinant CD40 (human CD40 muIg fusion protein) (Homo sapiens, UniProt P25942); test: BIAcore direct interaction of the ligands with immobilized CD40; assay type: binding; details: BIAcore 3000, kinetics of direct association to immobilized CD40, 30 μL/min over 4 minutes; read-out: dissociation constant
T1 construct: purchased ANCELL Corporation, Bayport, Minn
Source text: The BIAcore 3000 is a device which allows the study of the interactions between two molecules. Based on surface plasmon resonance, it makes it possible to carry out measurements in real time and thus to follow the interaction kinetics (association and dissociation) of an “analyte” (which is found in an injected solution) with a “ligand” (immobilized on a microchip supporting the measurement). Kinetic measurements at different concentrations of analyte make it possible to calculate the affinity constants of the interaction between the ligand and the analyte. The microchip contains four cells with different measurements, which makes it possible to directly compare a reference cell on which a non-pertinent protein (a protein which has no affinity for the analyte studied but close to the ligand) is immobilized, with the cell on which the ligand is immobilized.
The test is carried out in two stages: measurement of the direct interaction of the ligands with the CD40 immobilized on the microchip and measurement of the inhibition of the CD40-CD40L interaction by the ligands.
Rabbit antibodies directed against the constant part of mouse immunoglobulins were immobilized on a microchip. […]
In order to regenerate the cells (i.e. to remove all the proteins adsorbed in a non-covalent manner), a 50 mM HCl solution is injected at 5 μL/min over 1 minute. The cells are then ready for a new analysis.

[2] = test system: BL41 Burkitt's lymphoma cells (CD40+); test: Apoptosis of BL41 Burkitt's lymphoma cells, flow cytometry after DiOC6 labelling; assay type: cell-based; details: 16 hours
Method: The agonist effect of the ligands was tested by means of a simple biological test which is based on the property of certain B lymphomas of entering into apoptosis during the bridging of their membranous CD40 molecule (Tong et al., 1999). In fact, these B lymphomas enter into apoptosis during the bridging of their CD40 molecule by an anti-CD40 antibody or by soluble CD40L. The agonist ligands of CD40 will similarly induce an increase in the apoptosis of Burkitt's lymphoma cells which is measured by a precise analysis with flow cytometry.
BL41 Burkitt's or Raji (ATCC CCL-86) lymphoma cells (5.10^5/mL) two similar cell lines, are cultured in the presence of the different ligands at the desired concentrations. After 16 hours, the cells are labelled with 3,3′-dihexyloxacarbocyanine iodide (DiOC6) at 40 nM (Petit et al., 1995) in order to evaluate the percentage of apoptotic cells using flow cytometry.

[3] = target: T2, membranous CD40 of the BL41 cells (Homo sapiens, UniProt P25942); test: Labelling of membranous CD40 with biotinylated ligand, double labelling with anti-CD40 antibody under fluorescence microscopy; assay type: cell-based; details: 2.5 μM biotinylated ligand, colocalization with anti-CD40 antibody (FIG. 7B)
T2 construct: endogenous in cells; host or cells: BL41 Burkitt's lymphoma cells

Q: Which Kd [1] does the source give for `C[C@H]1NC(=O)[C@H](CCCCNC(=O)CCCCCNC(=O)[C@H](Cc2ccc(O)cc2)NC(=O)[C@H](Cc2ccc(O)cc2)NC(=O)CNC(=O)[C@@H](N)CCCCN)NC(=O)[C@@H](C)NC(=O)[C@H](CCCCNC(=O)CCCCCNC(=O)[C@H](Cc2ccc(O)cc2)NC(=O)[C@H](Cc2ccc(O)cc2)NC(=O)CNC(=O)[C@@H](N)CCCCN)NC(=O)[C@@H](C)NC(=O)[C@H](CCCCNC(=O)CCCCCNC(=O)[C@H](Cc2ccc(O)cc2)NC(=O)[C@H](Cc2ccc(O)cc2)NC(=O)CNC(=O)[C@@H](N)CCCCN)NC1=O` [L4, reference compound] (cyclo(K([Ahx-Tyr-Tyr-Gly-Lys])[dA]K([Ahx-Tyr-Tyr-Gly-Lys])[dA]K([Ahx-Tyr-Tyr-Gly-Lys])[dA])) here?
A: Its Kd is 94 nM.

Q: How did the specific apoptosis ([2]; ligand at 12.5 μM, DiOC6 flow cytometry (FIG. 5C)) turn out when `C[C@H]1NC(=O)[C@H](CCCCNC(=O)CCCCCNC(=O)[C@H](Cc2ccc(O)cc2)NC(=O)[C@H](Cc2ccc(O)cc2)NC(=O)[C@H]2CCCN2C(=O)[C@@H](N)CCCCN)NC(=O)[C@@H](C)NC(=O)[C@H](CCCCNC(=O)CCCCCNC(=O)[C@H](Cc2ccc(O)cc2)NC(=O)[C@H](Cc2ccc(O)cc2)NC(=O)[C@H]2CCCN2C(=O)[C@@H](N)CCCCN)NC(=O)[C@@H](C)NC(=O)[C@H](CCCCNC(=O)CCCCCNC(=O)[C@H](Cc2ccc(O)cc2)NC(=O)[C@H](Cc2ccc(O)cc2)NC(=O)[C@H]2CCCN2C(=O)[C@@H](N)CCCCN)NC1=O` [L40] (cyclo(K([Ahx-Tyr-Tyr-dP-Lys])[dA]K([Ahx-Tyr-Tyr-dP-Lys])[dA]K([Ahx-Tyr-Tyr-dP-Lys])[dA])) was run?
A: The specific apoptosis was 37.5%.

Q: Which results are given for `C[C@H]1NC(=O)[C@H](CCCCNC(=O)CCCCCNC(=O)[C@H](Cc2ccc(O)cc2)NC(=O)[C@H](Cc2ccc(O)cc2)NC(=O)CNC(=O)[C@@H](N)CCCCN)NC(=O)[C@@H](CCCCNC(=O)CCCC[C@@H]2SC[C@@H]3NC(=O)N[C@@H]32)NC(=O)[C@H](CCCCNC(=O)CCCCCNC(=O)[C@H](Cc2ccc(O)cc2)NC(=O)[C@H](Cc2ccc(O)cc2)NC(=O)CNC(=O)[C@@H](N)CCCCN)NC(=O)[C@@H](C)NC(=O)[C@H](CCCCNC(=O)CCCCCNC(=O)[C@H](Cc2ccc(O)cc2)NC(=O)[C@H](Cc2ccc(O)cc2)NC(=O)CNC(=O)[C@@H](N)CCCCN)NC1=O` [L41] (cyclo(K([Ahx-Tyr-Tyr-Gly-Lys])[dA]K([Ahx-Tyr-Tyr-Gly-Lys])[dA]K([Ahx-Tyr-Tyr-Gly-Lys])[dK](Biotin)))?
A: specificity of labelling to CD40, in words [3]: specific to CD40; biological activity (induction of apoptosis), in words ([2]; dose-response (FIG. 5B, 5C)): comparable to its non-biotinylated homologue L4
